Results: publication doi:10.1101/2024.04.02.587738
Results are given in words; binding and its absence hold for the method and conditions named. Binding seen in cells or lysates may run through a third protein. Here binding means that the protein was enriched with, or labelled near, the bait; the list need not be complete. Tags and fused reporters may be left off the sequences shown.

Biological target: T1, HA-tagged COA8 (Cytochrome c Oxidase Assembly factor 8) (human) (UniProt Q96IL0)
T1 sequence: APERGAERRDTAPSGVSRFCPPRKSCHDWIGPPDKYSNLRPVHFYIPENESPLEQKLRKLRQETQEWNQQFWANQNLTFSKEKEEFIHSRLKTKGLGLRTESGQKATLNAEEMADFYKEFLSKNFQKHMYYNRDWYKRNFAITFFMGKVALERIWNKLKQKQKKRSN
Assay: affinity purification with mass spectrometry

- binding: binds
Substance: COX10, heme O synthase (enzyme)
